PubChem BioAssay AID743121 – NCATS | 2013
Here is one part, drawn at random, of about 26,000 deposited reagents. Over the whole deposit, 167 (0.63%) got an active call. 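Calls are per gene from RSA p-values that are not deposited; an individual active-marked siRNA can sensitise only weakly.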 Unmarked entries are inactive. The numbers tell different reagents against one gene apart. Further read-outs or replicates are left out here.

Purpose: 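Knock-downs that sensitise breast cancer cells to camptothecin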 (primary screen)
Cell system: MDA-MB-231 cells, a human breast cancer line
Reagents: single siRNA against human genes, 20 nM siRNA (0.8 pmol per well)
Timing: 120 h (drug added 48 h after transfection, read 72 h later)
Challenge: camptothecin 20 nM (about EC30) for 72 h; vehicle 0.1% DMSO in parallel plates
Detection: 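CellTiter-Glo ATP signal, scaled to control siRNA as percent viability; sensitisation given as log2 of untreated divided by camptothecin-treated viability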
Scale: log2 vehicle/camptothecin viability: higher = stronger sensitisation to camptothecin
Active means: 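Each gene scored by redundant siRNA activity (RSA) over its individual siRNA ratios; a gene is called active at p < 0.001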

The opening 4 entries as a preview:
FBXO40 #1 → log2 vehicle/camptothecin viability = 0.0948
FBXO40 #2 → log2 vehicle/camptothecin viability = -0.126
FBXO40 #3 → log2 vehicle/camptothecin viability = 0.0765
FBXO40 #4 → log2 vehicle/camptothecin viability = 0.407

The list itself, repeating the preview:
FBXO40 #1 → log2 vehicle/camptothecin viability = 0.0948
FBXO40 #2 → log2 vehicle/camptothecin viability = -0.126
FBXO40 #3 → log2 vehicle/camptothecin viability = 0.0765
FBXO40 #4 → log2 vehicle/camptothecin viability = 0.407
PDIA4 #1 → log2 vehicle/camptothecin viability = 0.00537
PDIA4 #2 → log2 vehicle/camptothecin viability = -0.595
PDIA4 #3 → log2 vehicle/camptothecin viability = 0.0104
ASNS #1 → log2 vehicle/camptothecin viability = 0.0571
ASNS #2 → log2 vehicle/camptothecin viability = -0.3
ASNS #3 → log2 vehicle/camptothecin viability = 0.0419
ASNS #4 → log2 vehicle/camptothecin viability = -0.19
ARIH1 #1 → log2 vehicle/camptothecin viability = 0.00679
ARIH1 #2 → log2 vehicle/camptothecin viability = -0.171
ARIH1 #3 → log2 vehicle/camptothecin viability = -0.432
ARIH1 #4 → log2 vehicle/camptothecin viability = -0.308
MFRP #1 → log2 vehicle/camptothecin viability = -0.473
MFRP #2 → log2 vehicle/camptothecin viability = -0.061
MFRP #3 → log2 vehicle/camptothecin viability = 0.0286
MFRP #4 → log2 vehicle/camptothecin viability = -0.382
TMT1A #1 → log2 vehicle/camptothecin viability = -0.33
TMT1A #2 → log2 vehicle/camptothecin viability = -0.148
TMT1A #3 → log2 vehicle/camptothecin viability = -0.15
PJA1 #1 → log2 vehicle/camptothecin viability = 0.057
PJA1 #2 → log2 vehicle/camptothecin viability = 0.00493
PJA1 #3 → log2 vehicle/camptothecin viability = 0.1
PJA1 #4 → log2 vehicle/camptothecin viability = 0.0115
VWF #1 → log2 vehicle/camptothecin viability = -0.3
VWF #2 → log2 vehicle/camptothecin viability = -0.271
VWF #3 → log2 vehicle/camptothecin viability = 0.00342
VWF #4 → log2 vehicle/camptothecin viability = 0.331
SNRPA1 #1 → log2 vehicle/camptothecin viability = -0.665
SNRPA1 #2 → log2 vehicle/camptothecin viability = -0.397
SNRPA1 #3 → log2 vehicle/camptothecin viability = -0.716
SNRPA1 #4 → log2 vehicle/camptothecin viability = -0.451
MERTK #1 → log2 vehicle/camptothecin viability = 0.00576
MERTK #2 → log2 vehicle/camptothecin viability = -0.0667
MERTK #3 → log2 vehicle/camptothecin viability = -0.42
MERTK #4 → log2 vehicle/camptothecin viability = 0.16
